Test [1] has as its system FGFR3-mutated UREx-MR2057PD-AR patient-derived ureter carcinoma xenograft. Nature of the test: Antitumor activity in UREx-MR2057PD-AR patient-derived xenograft in nude mice. The class given is in vivo, Mouse (Mus musculus). To be noted: erdafitinib 15 mg/kg PO qdx21. The source says:
The UREx-MR2057PD-AR model was established from a metastatic lesion of a patient with urothelial carcinoma after progression under treatment with Erda. The treatment history before Erda is unknown but likely involved surgery and then non-targeted chemotherapy. The patient's tumor harbors an FGFR3 mutation, FGFR3 S249C (serine at amino acid 249 is mutated to cysteine), which is a known oncogenic mutation in the FGFR3 extracellular immunoglobulin-like domain that results in constitutive activation of the FGFR3 receptor.
Tumors of the same passage were transplanted subcutaneously onto 3-24 mice (donor mice, passage (n−1)). […]
(§1) Tumor volume was evaluated by measuring perpendicular tumor diameters, with a caliper, three time a week during the treatment period. […]
(§2) Individual tumor growth delays (TGD) was calculated as the time in days required for individual tumors to reach 3- to 5-fold the initial tumor volume.
(§3) The tumor growth delay index (TGDI) was calculated as the median growth delay in the treated group divided by the median growth delay in the control group.
(§4) The percentage ratio between the mean tumor volume of a treated group (T) and the mean tumor volume of the control group (C) was calculated.
The tumor growth rate was evaluated by the formula [Ty/Tx]−1 where Ty is mean tumor volume at the considered day and Tx is mean TV at DX. […]
On the technique in general: Xenograft models place foreign cells or tissue in a host animal.

Test [2] has as its system FGFR3-mutated VEx-MR086M1 patient-derived ureter carcinoma xenograft. Nature of the test: Antitumor activity in Vex-MR086M1 patient-derived xenograft in nude mice. To be noted: erdafitinib 15 mg/kg PO qdx21. The class given is in vivo, Mouse (Mus musculus).
From the text: The patient's tumor and the Patient-Derived Xenograph (PDX) have a FGFR3 mutation (S249C).
Tumors of the same passage were transplanted subcutaneously onto 3-24 mice (donor mice, passage (n−1)). When these tumors reached 1470 to 1688 mm^3, donor mice were sacrificed by cervical dislocation, tumors were aseptically excised and dissected. After removing necrotic areas, tumors were cut into fragments measuring approximately 20 mm^3 and transferred in culture medium before grafting. […]
as §1, §2, §3, §4
The tumor growth rate was evaluated by the formula DT/T0 where DT is the difference in tumour volume (TV) between the considered day and the day of enrolment and T0 is mean TV at D0. […]

In the case of `COc1cc(OC)cc(N(CCNC(C)C)c2ccc3ncc(-c4cnn(C)c4)nc3c2)c1` [Erdafitinib, reference compound], the “antitumor activity compared to control group (words)” value in test [1] is “did not show any antitumor activity”; in test [1] (listed as erdafitinib) it was “did not demonstrate any statistically significant tumor growth inhibition”; in test [2], “slight antitumor activity”; in test [2] (listed as erdafitinib) it was “statistically significant tumor growth inhibition”.
